Assay results taken from patent US6517853B1, “Process for preparing a crystal suspension” (Syngenta Limited, priority 1999, dated 2003).
At least one structure is not confirmed: it was looked up by name or label, or the drawing left a doubt.

Key:
[1] = Optical microscope image analysis of droplet / crystal size in aqueous emulsion or dispersion; format: physicochemical; conditions: for droplet size of hot emulsion: before cooling
Text: A small sample of the cooled sonicated emulsion was transferred using a capillary tube to a microscope slide and was protected with a glass cover slip. The slide was viewed using transmitted light or cross-polarised light (Zeiss microscope) and an image recorded on a calibrated micrograph. The micrograph provides information as to the size (μm), shape and degree of crystallinity of the droplets or crystals.

[2] = ΔH/RT value (heat of fusion by differential scanning calorimetry divided by R and melting point in K); format: physicochemical; conditions: enthalpy of fusion at normal melting point / (R × melting point in K)
Experimental: The value ΔH/RT is a well understood expression which means the enthalpy (heat) of fusion of a compound (ΔH in kJmol^−1) at the normal melting point of the compound divided by the molar gas constant (R, where R is 8.31451 Jmol^−1K^−1) and the melting point of the compound measured on the absolute or Kelvin scale (in °K). Thus, for example, the ΔH/RT value of octadecane, which has a melting point of 28.2° C. and a heat of fusion of 61.39 kJmol^−1 (see the CRC Handbook of Chemistry and Physics, [1996-1997], 77th Edition. 6-138) is calculated as follows: […]
The heat of fusion of a compound (ΔH) may be measured by differential scanning calorimetry. A suitable method is described by McNaughton, J. L. and Mortimer, C. T. in IRS: Physical Chemistry Series 2, Butterworth, London 1975, Vol 10; subsequently reprinted by Perkin-Elmer Corpn. Norwalk, Conn., USA.

[3] = 1% w/w aqueous dispersion, sonicated, all four samples

SMILES	crystal size without sonication after standing ([1]; 1% w/w emulsion cooled without sonication, standing for several days)	ΔH/RT [2]	size of rectangular plates after sonication [1, 3]	size of smaller crystalline material after sonication [1, 3]	crystal size (crystalline structures) without sonication ([1]; 1% w/w emulsion cooled rapidly using ice/water, no sonication, relay crystallisation)	droplet size of hot emulsion ([1]; 1% w/w in aqueous Mowiol 18-88, emulsified five minutes by high shear mixer)	droplet size of hot emulsion ([1]; 20% w/w in aqueous Mowiol 18-88, emulsified five minutes by high shear mixer)
CCCCNC(=O)OCC#CI [IPBC, 3-iodo-2-propynyl butyl carbamate]	25×10 μm	–	–	–	–	–	–
O=Cc1ccc2c(c1)OCO2 [piperonal, 3,4-(methylenedioxy)benzaldehyde]	–	5.00	10-30 μm	2-5 μm	> 100 μm	less than 2 μm	≤ 10 μm
